Test results published in US10130096B2, “Method for protecting useful plants or plant propagation material” (SYNGENTA PARTICIPATIONS AG, priority 2011, dated 2018).
Some of these results come from one statement about several compounds together.

How the values were obtained:
Format in all cases: in vivo
[1] = tested on: Magnaporthe grisea (Pyricularia oryzae); details: 200 ppm; rice leaf segments cv. Ballila, inoculated 2 days after application, 5-7 days after application
Fusarium graminearum = details: rate of 20 g/100 kg seeds; maize seed treatment, infested soil, number of germinated plants 9 weeks after sowing
Fusarium culmorum = Fusarium culmorum on Wheat/Pouch; details: 20 ppm; wheat, pouch, 10 days incubation

Row | SMILES | control on Magnaporthe grisea [1] | control of Fusarium graminearum (Fusarium graminearum) | control on Fusarium culmorum (Fusarium culmorum)
1 | OB1OCc2cc(Cl)ccc21 [Compound 1, 5-Chloro-3H-benzo[c][1,2]oxaborol-1-ol] | at least 80% | at least 80% | 
2 | CCC(N)COB1OCc2cc(Cl)ccc21 (stereo not shown) [Compound 2, 1-(5-Chloro-3H-benzo[c][1,2]oxaborol-1-yloxymethyl)-propylamine] | at least 80% | at least 80% | 
3 | NCCCOB1OCc2cc(Cl)ccc21 [Compound 5, 3-(5-Chloro-3H-benzo[c][1,2]oxaborol-1-yloxy)-propylamine] |  | at least 80% | at least 50%
4 | NCCCCOB1OCc2cc(F)ccc21 [Compound 13, 4-(5-Fluoro-3H-benzo[c][1,2]oxaborol-1-yloxy)-butylamine] |  | at least 80% | 
5 | OB1OCc2cc(F)ccc21 [Compound 8, 5-Fluoro-3H-benzo[c][1,2]oxaborol-1-ol] | at least 80% | at least 80% | at least 50%
6 | CCC(N)COB1OCc2cc(F)ccc21 (stereo not shown) [Compound 30, 1-(5-Fluoro-3H-benzo[c][1,2]oxaborol-1-yloxymethyl)-propylamine] | at least 80% | at least 80% | at least 50%
7 | NCCCOB1OCc2cc(F)ccc21 [Compound 12, 3-(5-Fluoro-3H-benzo[c][1,2]oxaborol-1-yloxy)-propylamine] | at least 80% | at least 80% | at least 50%
